Laboratory results as given in the M2OR odorant receptor database.
Residue numbers refer to the chain shown, from its start. The list shows a part of the results, in another mix than the full data. Calls are pooled over several reports, among them a noisy single-well screen. The list shows a part of the results. Some of the results follow.

Chains of the proteins cited; added tags and fusions are not shown. A line that says so, or that is headed by a name, gives the form on record, which may keep a tag or linker.
OR5L1, as listed by the source: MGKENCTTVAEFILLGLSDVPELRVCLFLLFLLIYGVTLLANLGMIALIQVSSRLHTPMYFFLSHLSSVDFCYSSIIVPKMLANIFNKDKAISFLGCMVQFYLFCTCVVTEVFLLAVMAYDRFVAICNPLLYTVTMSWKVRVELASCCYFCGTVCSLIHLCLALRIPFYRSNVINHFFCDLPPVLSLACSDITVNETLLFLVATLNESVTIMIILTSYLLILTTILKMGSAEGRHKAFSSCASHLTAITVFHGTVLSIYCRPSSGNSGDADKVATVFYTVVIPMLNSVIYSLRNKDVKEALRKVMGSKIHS
OR5H1, as listed by the source: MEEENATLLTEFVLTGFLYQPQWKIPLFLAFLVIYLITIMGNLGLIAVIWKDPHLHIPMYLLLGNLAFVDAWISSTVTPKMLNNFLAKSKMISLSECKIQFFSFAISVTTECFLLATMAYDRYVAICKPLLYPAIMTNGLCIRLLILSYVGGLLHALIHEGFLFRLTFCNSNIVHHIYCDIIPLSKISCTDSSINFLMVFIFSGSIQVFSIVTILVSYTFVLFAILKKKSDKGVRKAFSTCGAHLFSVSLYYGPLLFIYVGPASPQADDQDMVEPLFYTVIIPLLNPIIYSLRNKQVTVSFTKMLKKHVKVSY

Experiments:
Conditions in all cases: stereoisomer not certain
[1] = tested on: T1, OR5DD
T1 sequence (whole entry): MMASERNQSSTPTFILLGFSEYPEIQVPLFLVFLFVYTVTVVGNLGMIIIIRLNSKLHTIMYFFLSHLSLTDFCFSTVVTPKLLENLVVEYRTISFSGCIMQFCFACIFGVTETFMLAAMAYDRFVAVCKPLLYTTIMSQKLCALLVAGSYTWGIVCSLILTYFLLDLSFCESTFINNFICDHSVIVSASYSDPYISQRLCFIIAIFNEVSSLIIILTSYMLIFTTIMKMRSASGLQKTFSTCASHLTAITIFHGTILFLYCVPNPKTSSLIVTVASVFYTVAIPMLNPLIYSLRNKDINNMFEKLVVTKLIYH
Procedure, shortened: (§1)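 Each receptor–molecule pair is labelled responsive or non-responsive (inactive) according to whether the original authors judged the measured signal statistically different from baseline. The data were taken from the main text and supplementary material of published papers and checked for typos and inconsistencies. Assay methods differed by source, with transient luciferase assays in mammalian cell lines being common.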

[2] = tested on: T2, OR5DE
T2 sequence (whole entry): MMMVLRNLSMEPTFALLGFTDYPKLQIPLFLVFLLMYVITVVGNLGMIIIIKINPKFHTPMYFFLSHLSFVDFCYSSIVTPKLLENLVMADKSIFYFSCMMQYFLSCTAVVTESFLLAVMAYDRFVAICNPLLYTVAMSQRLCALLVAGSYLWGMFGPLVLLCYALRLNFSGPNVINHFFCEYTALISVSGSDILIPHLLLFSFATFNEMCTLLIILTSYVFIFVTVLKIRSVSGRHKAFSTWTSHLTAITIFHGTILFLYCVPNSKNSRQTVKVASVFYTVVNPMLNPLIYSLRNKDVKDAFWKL
Procedure, shortened: as §1

[3] = tested on: T3, OR5DG
T3 sequence (whole entry): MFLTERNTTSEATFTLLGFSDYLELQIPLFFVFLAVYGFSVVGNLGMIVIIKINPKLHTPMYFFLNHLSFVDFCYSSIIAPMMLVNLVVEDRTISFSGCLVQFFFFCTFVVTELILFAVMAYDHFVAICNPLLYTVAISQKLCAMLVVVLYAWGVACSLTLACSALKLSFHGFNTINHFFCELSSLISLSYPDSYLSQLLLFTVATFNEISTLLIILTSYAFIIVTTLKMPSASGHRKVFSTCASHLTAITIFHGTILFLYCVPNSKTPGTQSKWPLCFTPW
Procedure, shortened: as §1

[4] = tested on: T4, OR5DI
T4 sequence (whole entry): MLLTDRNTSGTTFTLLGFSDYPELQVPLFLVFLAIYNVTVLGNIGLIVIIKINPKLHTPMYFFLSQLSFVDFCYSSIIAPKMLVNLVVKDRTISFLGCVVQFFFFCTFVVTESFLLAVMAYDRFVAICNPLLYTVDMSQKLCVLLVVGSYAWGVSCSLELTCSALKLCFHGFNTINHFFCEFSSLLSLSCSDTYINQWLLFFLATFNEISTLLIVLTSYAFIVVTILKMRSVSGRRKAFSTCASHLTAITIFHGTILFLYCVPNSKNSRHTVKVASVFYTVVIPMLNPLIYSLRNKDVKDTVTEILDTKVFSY
Procedure, shortened: as §1

[5] = tested on: T5, OR5F1
T5 sequence (whole entry): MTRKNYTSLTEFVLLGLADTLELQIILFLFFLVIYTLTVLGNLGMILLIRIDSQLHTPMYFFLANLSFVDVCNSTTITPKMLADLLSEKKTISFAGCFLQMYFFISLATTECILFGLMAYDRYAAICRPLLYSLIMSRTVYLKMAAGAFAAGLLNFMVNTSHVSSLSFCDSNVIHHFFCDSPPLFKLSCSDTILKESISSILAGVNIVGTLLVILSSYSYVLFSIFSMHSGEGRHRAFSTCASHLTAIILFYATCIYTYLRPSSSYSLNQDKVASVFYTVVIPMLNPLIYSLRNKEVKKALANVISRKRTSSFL
Procedure, shortened: as §1

[6] = biological target: T6, OR5H1 (Homo sapiens) (UniProt A6NKK0)
T6 sequence (whole entry): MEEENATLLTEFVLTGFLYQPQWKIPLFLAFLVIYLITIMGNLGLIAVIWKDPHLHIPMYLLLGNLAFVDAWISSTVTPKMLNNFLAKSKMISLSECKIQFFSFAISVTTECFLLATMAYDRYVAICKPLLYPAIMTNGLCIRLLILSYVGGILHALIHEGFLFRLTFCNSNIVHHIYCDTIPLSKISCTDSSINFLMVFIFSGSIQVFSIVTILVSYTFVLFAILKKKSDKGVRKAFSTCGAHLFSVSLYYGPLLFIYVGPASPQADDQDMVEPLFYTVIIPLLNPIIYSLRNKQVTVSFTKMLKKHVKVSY
Procedure, shortened: as §1

[7] = tested on: T7, OR5H1
T7 sequence (whole entry): T6 sequence (whole entry) with I153L, T181I
Procedure, shortened: as §1

[8] = tested on: T8, OR5H2
T8 sequence (whole entry): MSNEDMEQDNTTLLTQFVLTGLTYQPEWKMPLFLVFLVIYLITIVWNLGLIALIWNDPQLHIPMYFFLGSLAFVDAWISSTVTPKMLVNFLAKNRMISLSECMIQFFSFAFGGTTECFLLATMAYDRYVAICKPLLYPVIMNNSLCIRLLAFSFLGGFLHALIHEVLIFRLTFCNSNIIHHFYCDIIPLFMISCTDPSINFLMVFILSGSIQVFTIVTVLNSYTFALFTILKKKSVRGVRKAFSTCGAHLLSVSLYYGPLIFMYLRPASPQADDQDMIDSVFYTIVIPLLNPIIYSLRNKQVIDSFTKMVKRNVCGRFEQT
Procedure, shortened: as §1

[9] = tested on: T9, OR5H2; remark: listed apart in the source
T9 sequence (whole entry): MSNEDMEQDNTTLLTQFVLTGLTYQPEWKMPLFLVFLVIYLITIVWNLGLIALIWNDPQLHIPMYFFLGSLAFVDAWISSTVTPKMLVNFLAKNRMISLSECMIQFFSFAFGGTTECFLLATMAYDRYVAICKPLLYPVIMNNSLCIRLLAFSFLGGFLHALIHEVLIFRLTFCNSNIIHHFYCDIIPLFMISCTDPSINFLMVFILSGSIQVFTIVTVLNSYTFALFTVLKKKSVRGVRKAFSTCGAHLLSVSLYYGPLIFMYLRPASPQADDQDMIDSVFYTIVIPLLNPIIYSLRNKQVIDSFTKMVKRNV
Procedure, shortened: as §1

[10] = tested on: T10, OR5H6
T10 sequence (whole entry): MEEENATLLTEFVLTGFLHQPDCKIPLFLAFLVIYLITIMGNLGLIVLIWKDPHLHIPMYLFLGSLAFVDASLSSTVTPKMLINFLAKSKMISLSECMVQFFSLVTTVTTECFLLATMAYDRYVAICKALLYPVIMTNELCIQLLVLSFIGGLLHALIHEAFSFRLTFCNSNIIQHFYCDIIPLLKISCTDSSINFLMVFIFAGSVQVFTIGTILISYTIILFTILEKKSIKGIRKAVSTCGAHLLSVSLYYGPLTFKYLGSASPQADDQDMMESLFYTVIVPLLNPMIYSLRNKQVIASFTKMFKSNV
Procedure, shortened: as §1

[11] = tested on: T11, OR5H6; remark: listed apart in the source
T11 sequence (whole entry): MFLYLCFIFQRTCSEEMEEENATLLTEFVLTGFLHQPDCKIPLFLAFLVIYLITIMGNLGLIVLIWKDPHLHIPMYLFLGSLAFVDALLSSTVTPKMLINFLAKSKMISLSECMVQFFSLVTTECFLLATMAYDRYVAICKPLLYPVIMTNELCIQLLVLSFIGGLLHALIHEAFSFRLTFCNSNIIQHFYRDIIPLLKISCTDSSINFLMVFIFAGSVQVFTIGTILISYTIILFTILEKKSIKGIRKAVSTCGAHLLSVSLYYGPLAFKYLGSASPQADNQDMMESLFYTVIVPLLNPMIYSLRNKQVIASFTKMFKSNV
Procedure, shortened: as §1

[12] = biological target: T12, OR5I1 (Homo sapiens) (UniProt Q13606)
T12 sequence (whole entry): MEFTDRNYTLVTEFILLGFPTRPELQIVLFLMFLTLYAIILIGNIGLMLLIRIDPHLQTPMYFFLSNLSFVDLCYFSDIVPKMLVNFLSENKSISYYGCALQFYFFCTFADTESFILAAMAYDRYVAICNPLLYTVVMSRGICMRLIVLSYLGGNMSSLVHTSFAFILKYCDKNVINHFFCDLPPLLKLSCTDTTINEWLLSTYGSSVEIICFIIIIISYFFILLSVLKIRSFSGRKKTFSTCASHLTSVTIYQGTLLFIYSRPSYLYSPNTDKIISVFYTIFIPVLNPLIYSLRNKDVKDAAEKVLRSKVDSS
Procedure, shortened: as §1

[13] = biological target: T13, OR5J2 (Homo sapiens) (UniProt Q8NH18)
T13 sequence (whole entry): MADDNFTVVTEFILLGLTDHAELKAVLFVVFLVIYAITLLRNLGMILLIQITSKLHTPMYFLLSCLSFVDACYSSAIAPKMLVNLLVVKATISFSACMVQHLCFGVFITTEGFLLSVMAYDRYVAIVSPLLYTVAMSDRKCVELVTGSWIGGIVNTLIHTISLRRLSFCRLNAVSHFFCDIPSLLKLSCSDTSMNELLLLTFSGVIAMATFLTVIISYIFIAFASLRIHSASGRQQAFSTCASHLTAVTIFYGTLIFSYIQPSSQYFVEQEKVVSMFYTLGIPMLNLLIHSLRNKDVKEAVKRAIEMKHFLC
Procedure, shortened: as §1

[14] = biological target: T14, OR5K1 (Homo sapiens) (UniProt Q8NHB7)
T14 sequence (whole entry): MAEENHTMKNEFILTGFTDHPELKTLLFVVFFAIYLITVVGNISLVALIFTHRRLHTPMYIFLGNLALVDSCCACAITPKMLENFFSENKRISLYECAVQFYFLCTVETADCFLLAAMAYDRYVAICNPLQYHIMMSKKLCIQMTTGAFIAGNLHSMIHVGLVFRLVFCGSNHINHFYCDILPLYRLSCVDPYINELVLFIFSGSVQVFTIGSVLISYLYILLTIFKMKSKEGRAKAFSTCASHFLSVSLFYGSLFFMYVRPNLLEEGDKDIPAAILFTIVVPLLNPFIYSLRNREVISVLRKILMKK
Procedure, shortened: as §1

[15] = biological target: T15, OR5K2 (Homo sapiens) (UniProt Q8NHB8)
T15 sequence (whole entry): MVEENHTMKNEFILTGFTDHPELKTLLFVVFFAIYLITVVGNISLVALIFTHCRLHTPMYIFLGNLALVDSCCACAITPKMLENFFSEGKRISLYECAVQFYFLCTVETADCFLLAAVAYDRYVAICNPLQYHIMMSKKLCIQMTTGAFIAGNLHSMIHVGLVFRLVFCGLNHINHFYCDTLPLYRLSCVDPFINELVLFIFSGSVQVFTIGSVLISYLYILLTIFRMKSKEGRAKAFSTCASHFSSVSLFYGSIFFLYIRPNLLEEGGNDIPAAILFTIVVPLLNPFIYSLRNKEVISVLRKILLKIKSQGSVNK
Procedure, shortened: as §1

[16] = tested on: T16, OR5K3
T16 sequence (whole entry): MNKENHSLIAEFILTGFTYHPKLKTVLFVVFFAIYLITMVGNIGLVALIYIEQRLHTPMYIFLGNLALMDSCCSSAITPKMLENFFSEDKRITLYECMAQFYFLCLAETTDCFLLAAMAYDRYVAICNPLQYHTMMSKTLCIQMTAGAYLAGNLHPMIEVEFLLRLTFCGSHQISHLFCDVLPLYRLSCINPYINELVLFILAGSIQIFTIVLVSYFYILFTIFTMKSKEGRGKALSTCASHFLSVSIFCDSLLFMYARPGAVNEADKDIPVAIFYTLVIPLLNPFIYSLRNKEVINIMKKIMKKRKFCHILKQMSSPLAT
Procedure, shortened: as §1

[17] = tested on: T17, OR5K4
T17 sequence (whole entry): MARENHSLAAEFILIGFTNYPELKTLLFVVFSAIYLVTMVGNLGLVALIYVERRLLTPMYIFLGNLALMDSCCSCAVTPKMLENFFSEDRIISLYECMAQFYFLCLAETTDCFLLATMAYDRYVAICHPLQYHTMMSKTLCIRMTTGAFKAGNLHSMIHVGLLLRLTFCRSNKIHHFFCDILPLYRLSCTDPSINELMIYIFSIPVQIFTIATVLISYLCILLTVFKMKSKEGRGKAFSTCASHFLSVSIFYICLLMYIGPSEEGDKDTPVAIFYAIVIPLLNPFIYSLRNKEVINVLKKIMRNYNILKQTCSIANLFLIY
Procedure, shortened: as §1

[18] = biological target: T18, OR5L1 (Homo sapiens) (UniProt Q8NGL2)
T18 sequence (whole entry): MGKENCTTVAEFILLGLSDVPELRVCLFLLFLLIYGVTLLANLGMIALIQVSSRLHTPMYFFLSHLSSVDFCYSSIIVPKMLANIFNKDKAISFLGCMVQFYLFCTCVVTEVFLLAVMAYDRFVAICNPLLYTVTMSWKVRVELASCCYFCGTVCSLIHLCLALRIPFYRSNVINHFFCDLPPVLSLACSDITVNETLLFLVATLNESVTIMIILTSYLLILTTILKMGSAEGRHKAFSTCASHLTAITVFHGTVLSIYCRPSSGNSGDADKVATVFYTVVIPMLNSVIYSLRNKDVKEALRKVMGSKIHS
Procedure, shortened: as §1

[19] = tested on: T19, OR5L1
T19 sequence (whole entry): T18 sequence (whole entry) with T240S
Procedure, shortened: as §1

[20] = biological target: T20, OR5M11 (Homo sapiens) (UniProt Q96RB7)
T20 sequence (whole entry): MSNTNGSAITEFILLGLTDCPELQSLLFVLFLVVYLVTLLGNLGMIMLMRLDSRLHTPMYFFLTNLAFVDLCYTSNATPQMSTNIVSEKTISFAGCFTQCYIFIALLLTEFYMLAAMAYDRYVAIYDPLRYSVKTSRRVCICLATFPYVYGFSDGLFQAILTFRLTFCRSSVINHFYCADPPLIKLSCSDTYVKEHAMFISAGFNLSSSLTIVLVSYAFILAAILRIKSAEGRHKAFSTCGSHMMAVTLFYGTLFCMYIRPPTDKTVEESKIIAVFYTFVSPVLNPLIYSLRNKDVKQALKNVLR
Procedure, shortened: as §1

Measured: odorant receptor agonist call;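 note: active if original authors judged signal statistically different from baseline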

CS
inactive: all assays above

CCOc1cc(C=O)ccc1O
inactive: [14]
